Measurements as given in article PMC10769875.
Results are given in words; binding and its absence hold for the method and conditions named. In cells and extracts the contact can be indirect. Some results given as binding are weak or reduced against the parent protein; the word gives no strength.

Amino acid sequences for entries named in this document (tags omitted). A change or cut given only in a name is not applied to a line headed by its entry.
UniProt Q79NI3: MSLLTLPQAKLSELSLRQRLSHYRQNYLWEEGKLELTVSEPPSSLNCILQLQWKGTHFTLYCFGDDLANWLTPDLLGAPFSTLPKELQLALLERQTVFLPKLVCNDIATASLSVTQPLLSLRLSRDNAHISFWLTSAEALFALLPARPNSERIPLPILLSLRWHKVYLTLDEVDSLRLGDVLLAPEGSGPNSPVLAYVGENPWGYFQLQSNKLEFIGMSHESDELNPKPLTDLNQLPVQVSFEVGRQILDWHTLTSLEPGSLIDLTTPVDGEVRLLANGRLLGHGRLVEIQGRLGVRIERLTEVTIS

Molecular target: SctQ-Flag (Y. enterocolitica) (UniProt Q79NI3)
Assay: pull-down

SctQC (from UniProt Q79NI3 218-307) (domain or fragment)
binding: binds
